Reference: article PMC12040169 (PLOS Biology, 2025)
The other results are listed elsewhere or left out.

Each compound was assayed on T1, CTL2-GFP (C. trachomatis L2/434/Bu, GFP-expressing). Settings: bulk GFP, single well; 28.5 h, 10 µM; inhibitor.
T1 construct: L2/434/Bu, GFP-expressing
Set-up: species or system HeLa; Intracellular C. trachomatis growth in HeLa cells, bulk GFP fluorescence relative to DMSO

| Structure (SMILES) | % of control remaining [%] |
| --- | --- |
| O=C(c1[nH]c2ccccc2c1NS(=O)(=O)Cc1ccccc1)N1CCOCC1 [CBK050067] | 101.586 |
| OCCn1c(COc2cccc3cccnc23)nc2ccccc21 [CBK269942] | 104.423 |
| Cc1cc(=O)[nH]c(C)c1C(=O)N1CCC(N2CCCC(CO)C2)CC1 (centres unmarked) [CBK307158] | 125.098 |
| O=C(Cc1ccsc1)N1CCN(C(=O)c2ccco2)CC1 [CBK144446] | 110.825 |
| O=C(C1CC2C=CC1C21CC1)N1CCC(Oc2cccnc2)CC1 (centres unmarked) [CBK281501] | 127.92 |
| CCN1C(=O)COC[C@@H]1[C@H](O)c1ccc(NC(=O)c2ccc(C#N)cc2)cc1 [CBK289689] | 126.972 |
| Nc1cc(Cl)nc(SCC2CCCCC2)n1 [CBK007970] | 78.5075 |
| CCNS(=O)(=O)c1ccc2c(c1)N(Cc1nc(-c3ccco3)no1)CC2 [CBK306184] | 101.353 |
| CN(C)c1cccc(-c2cc(Nc3ccc4c(c3)OCCO4)ncn2)c1 [CBK090808] | 172.734 |
| CCCCCOc1ccc(NS(=O)(=O)c2cccc(C(=O)O)c2)cc1 [CBK299795] | 117.704 |
| Nc1cc(O)n(Cc2ccco2)c(=S)n1 [CBK006010] | 106.995 |
| FC(F)(F)c1ccc(CN2CCC(Oc3nccnc3OCc3cccnc3)CC2)cc1 [CBK083160T] | 138.699 |
| Cc1cc(NC(=O)c2ccc(Br)cc2)nc2c1c(=O)oc1ccccc12 [CBK291262] | 133.571 |
| Cc1[nH]c2ccccc2c1C(=O)CSc1nc(N)cc(=O)[nH]1 [CBK297511] | 129.302 |
| COCCN1C(=O)C2(CC(=O)N(Cc3ccccc3)C2=O)c2cc(OC)ccc21 (centres unmarked) [CBK075177] | 101.525 |
| COc1ccc(OCC(=O)Nc2cc3oc4ccccc4c3cc2OC)cc1 [CBK262608] | 109.829 |
| c1cncc(CNc2nc(-c3cccs3)cn3ccnc23)c1 [CBK066687] | 161.185 |
| CC1(C)CC(=O)C(C(=S)Nc2ccc(F)cc2)=C(NCc2ccc3c(c2)OCO3)C1 [CBK264779] | 100 |
| COc1cncc(-c2cc(Nc3ccc(O)cc3)ncn2)c1 [CBK090752] | 118.574 |
| COc1ccccc1-c1nccnc1NCC(C)O (centres unmarked) [CBK037637] | 110.911 |
| CCOc1ccc(NC(=O)N(Cc2ccccn2)CC2CCCO2)cc1 (centres unmarked) [CBK306847] | 121.501 |
| c1c(CC2CCCCC2)nnn1[C@H]1CO[C@H]2[C@@H]1OC[C@@H]2NCC1CC1 [CBK289511] | 118.394 |
| O=C(Cc1ccccc1)Nc1ccc(Oc2ccc(C(=O)O)c(C(=O)O)c2)cc1 [CBK263611] | 126.093 |
| Cn1ccnc1C(O)(c1ccccc1)c1nccn1C [CBK262084] | 118.081 |
| Cc1ccc(-c2cc(CC3(C(=O)NC4CC4)CCOCC3)on2)cc1 [CBK284946] | 117.011 |
| COc1ccc(-c2cc(-c3c(O)ccc4c(C)cc(=O)oc34)nc(N)n2)cc1OC [CBK074619] | 147.008 |
| CCN(CC1CCOC1)C(=O)c1cn2ccccc2n1 (centres unmarked) [CBK305653] | 122.661 |

| Structure (SMILES) | % of control remaining [%] |
| --- | --- |
| Fc1ccc(C2NC(S)=NC3=C2N2CCC3CC2)cc1 (centres unmarked) [CBK288390] | 135.909 |
| Cn1nc(C2CCN(C(=O)Cc3ccsc3)CC2)c2cccnc21 [CBK284986] | 99.2912 |
| Cc1nccnc1N1CCC2(CCCN(CC3CCC3)C2=O)C1 (centres unmarked) [CBK306806] | 90.8903 |
| CC(C)CNC(=O)N1CCNC(=O)C1 [CBK155864] | 135.848 |
| Cn1ccnc1Sc1cc(C(F)(F)F)ccn1 [CBK093798] | 154.721 |
| CCC(CC(=O)NC1CCCOC1)c1c[nH]c2ccccc12 (centres unmarked) [CBK282521] | 102.957 |
| CN(Cc1ccc(Cl)c(F)c1)C(=O)c1cn[nH]c1C1CCCCN1 (centres unmarked) [CBK304742] | 141.601 |
| O=C1NCCNC(=O)C2(C/C=C/COc3ccccc31)CCCN(C(=O)c1cnco1)C2 (centres unmarked) [CBK291993] | 136.451 |
| CCOc1ccc(NC(=O)Cn2c3c(c(-c4ccccc4)cc2=O)CCCC3)cc1 [CBK294457] | 165.213 |
| CC(C)c1ccc(OCC(=O)NNC(=O)c2ccco2)c(Br)c1 [CBK267224] | 159.613 |
| O=S(=O)(c1ccc(Cl)cc1)N1CCN(S(=O)(=O)N2CCCCC2)CC1 [CBK267075] | 163.117 |
| CN(C)C(C(=O)NCC1(C)COC1)c1ccc(Cl)cc1 (centres unmarked) [CBK281753] | 127.665 |
| COc1ccc(NC(=O)N[C@H]2CO[C@H]3[C@@H]2OC[C@@H]3n2cc(-c3ccccc3)nn2)cc1 [CBK289506] | 138.875 |
| CN(C)CCCn1nc2n(c1=O)-c1ccccc1SC(c1ccccc1)C2 (centres unmarked) [CBK016063] | 117.852 |
| COCCNC(=O)c1cnc2ccc(OC)cc2c1O [CBK159999] | 112.283 |
| FC(F)(F)c1ccnc(OCCCc2ccncc2)n1 [CBK115799] | 111.713 |
| O=C(NC(=S)Nc1ccc2oc(-c3ccncc3)nc2c1)c1cc(Br)ccc1Cl [CBK264343] | 135.807 |
| O=C(O)CCNc1ncnc2ccccc12 [CBK126920] | 128.742 |
| CC(C)NS(=O)(=O)c1ccc(OCC(=O)Nc2ccc3c(c2)OCCO3)cc1 [CBK265915] | 165.069 |
| O=C(O)Cn1cc(C(=O)COc2ccccc2)c2ccccc21 [CBK286708] | 105.406 |
| COc1ccccc1-c1cnc(N)c(N2CCN(CCO)CC2)n1 [CBK063403] | 202.626 |
| Cc1nn(C)c(C)c1NC(=O)COc1ccc(C#N)cc1 [CBK306011] | 108.178 |
| CC(C)C(=O)N1CC2(CCN(Cc3ccc(C(C)C)cc3)CC2)c2ccccc21 [CBK122702] | 102.656 |
| O=C(O)CN1C(=O)C2(CC(=O)N(Cc3ccccc3)C2=O)c2cc(F)ccc21 (centres unmarked) [CBK076173] | 140.376 |
| COc1ccc(CC(=O)N2CCC(C3OCc4cc(-c5ccc(C(=O)N(C)C)cc5)ccc4O3)CC2)cc1 (centres unmarked) [CBK149759] | 165.363 |
| COc1ccc(-c2c[nH]c3c(=S)[nH]cnc23)cc1 [CBK288462] | 143.245 |
| Cc1cc(C)n(C2CCN(Cc3cnn(C4CCCCC4)c3)CC2)n1 [CBK281804] | 146.957 |

| Structure (SMILES) | % of control remaining [%] |
| --- | --- |
| COCCNc1cc(-c2ccc(SC)cc2)ncn1 [CBK090795] | 97.3067 |
| Cc1cc(NC(=O)c2ccc3c(c2)OCO3)nc2c1c(=O)oc1ccccc12 [CBK291121] | 120.461 |
| COc1ccccc1NC(=O)CSc1nc(O)c2c(C)cc(C)nc2n1 [CBK266095] | 176.359 |
| C=CCSc1nc2ccccc2c(=O)n1CCc1ccccc1 [CBK055285] | 107.552 |
| CC(=O)Nc1cccc(NC(=O)CN(CCO)C2CCCCC2)c1 [CBK304239] | 104.682 |
| Cc1ccc(SCCC(=O)NC(CC(=O)O)C(=O)O)cc1 (centres unmarked) [CBK295174] | 163.397 |
| CC1CCN(C(=O)CCn2c(C(F)F)cc3cccnc32)CC1 [CBK284982] | 129.915 |
| O=C(O)CCNS(=O)(=O)c1cccc(F)c1 [CBK267264] | 117.685 |
| CCOC(=O)c1ccc(NC(=O)Cc2c(C(=O)O)nnn2-c2cccc(C(F)(F)F)c2)cc1 [CBK296932] | 114.477 |
| COc1cc(NS(=O)(=O)c2ccccc2)c(Cl)cc1C(=O)O [CBK286564] | 124.167 |
| Cc1ccc(S(=O)(=O)NCC(=O)O)cc1[N+](=O)[O-] [CBK034459] | 110.45 |
| Cc1cc(C(=O)O)ccc1-c1ccc(/C=C/c2[nH]c(=O)[nH]c(=O)c2[N+](=O)[O-])o1 [CBK266998] | 157.399 |
| CC(=O)N1CC(C(=O)Nc2nc3c(C)cc(C)cc3s2)C1 [CBK281372] | 128.521 |
| N#Cc1ccccc1N1CCN(c2ccc(-c3ccccc3)cn2)CC1 [CBK037590] | 93.2922 |
| CCN(C)CC(=O)N1CCC(Oc2cc(C)ccc2F)(C(=O)O)CC1 [CBK307020] | 130.137 |
| c1ccc(-c2cn3ccnc3c(N3CCN(c4ccncc4)CC3)n2)cc1 [CBK066177] | 134.07 |
| CC(=O)Nc1ccc2nc(Nc3nc4c(F)cccc4s3)sc2c1 [CBK287475] | 159.885 |
| COc1ccccc1CC(c1ccccc1)C1CN(C)CCO1 (centres unmarked) [CBK009925C] | 134.534 |
| CCC1CCCCN1C(=O)c1ccc(-c2ccccc2)s1 (centres unmarked) [CBK074215] | 109.417 |
| O=C(Nc1cccc(Cl)c1)Nc1ccc(C(=O)O)c(O)c1 [CBK269518] | 137.389 |
| O=C(Cc1ccc(Cl)c(Cl)c1)N1CCCC2(CCN(C(=O)c3ccoc3)C2)C1 (centres unmarked) [CBK131619] | 123.29 |
| CCCC(=O)NC(c1ccccn1)C1CCC(CNC(C)=O)CC1 (centres unmarked) [CBK283080] | 106.112 |
| Cc1cc(N2CCN(C(=O)CCc3ccccc3)CC2)nc(C(C)C)n1 [CBK305711] | 99.2255 |
| COc1cccc(NC(=O)N2CCC3(CC2)NC(=O)c2cc(-c4ccoc4)ccc2O3)c1 [CBK115855] | 97.6145 |
| O=C(Nc1ncccc1O)c1c(O)c2ccccc2n(Cc2ccccc2)c1=O [CBK291211] | 111.362 |
| CC(C)C(=O)N1CCCC(c2cc3cccnc3[nH]2)C1 (centres unmarked) [CBK284994] | 96.9107 |

Five entries from above, comma-delimited:
Structure (SMILES),% of control remaining [%]
COCCNC(=O)c1cnc2ccc(OC)cc2c1O [CBK159999],112.283
FC(F)(F)c1ccnc(OCCCc2ccncc2)n1 [CBK115799],111.713
O=C(NC(=S)Nc1ccc2oc(-c3ccncc3)nc2c1)c1cc(Br)ccc1Cl [CBK264343],135.807
O=C(O)CCNc1ncnc2ccccc12 [CBK126920],128.742
CC(C)NS(=O)(=O)c1ccc(OCC(=O)Nc2ccc3c(c2)OCCO3)cc1 [CBK265915],165.069
